From article PMC2648313, “Identification of Rhoptry Trafficking Determinants and Evidence for a Novel Sorting Mechanism in the Malaria Parasite Plasmodium falciparum” (PLoS Pathogens, 2009)
No constants are given. Whether binding was seen depends on the method and setting.

Chains of the proteins cited; added tags and fusions are not shown. Residues count along the entry.
UniProt Q6VVE5, residues 759-840: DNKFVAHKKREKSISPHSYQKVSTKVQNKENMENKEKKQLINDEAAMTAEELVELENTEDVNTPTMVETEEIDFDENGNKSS

Target: RAP1(57-152), RAP1(22-152) with the RAP1 rhoptry signal deleted (P. falciparum 3D7) (UniProt Q9U429)
Assay: pull-down; 100 ug His6-tagged RAP1 recombinant protein immobilised on TALON resin, incubated O/N at 4 C with purified GST-fusion proteins in pull-down buffer (50 mM Na2HPO4, 75 mM NaCl, 0.1% Triton X-100, 5 mM imidazole, pH 7.4); eluted with imidazole; Coomassie gel and immunoblot with anti-GST; both purified

Substance: RAMAE, RAMA-GST fusion protein representing amino acids 759-840 (from UniProt Q6VVE5 759-840) (domain or fragment)
- binding: no binding
